In paper PMC10564737, “Structure-based design of a phosphotyrosine-masked covalent ligand targeting the E3 ligase SOCS2” (Nature Communications, 2023):
Several values for one entry are separate records, joined by “and”; a condition that tells them apart may be missing. Equal entries are not always repeated. The source gives many values for each of these; only a part stands here.

Chains of the proteins cited; added tags and fusions are not shown. Residues count along the entry.
UniProt O14508, 32-198: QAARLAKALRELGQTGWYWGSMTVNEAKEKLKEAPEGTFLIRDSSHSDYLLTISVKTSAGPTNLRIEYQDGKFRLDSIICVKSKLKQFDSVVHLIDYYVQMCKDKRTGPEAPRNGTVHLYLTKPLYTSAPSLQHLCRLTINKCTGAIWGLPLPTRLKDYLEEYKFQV

Target: T1, SBC2 (Homo sapiens, UniProt O14508)
T1 construct: SOCS2 (amino acids 32–198); His6 (N, cleaved yes); made in house; host or cells: E. coli BL21(DE3)
Experiment: Covalent fluorescence polarization (FP) probe displacement assay
Type: binding
Source text: With the specific covalent modification of Cys111 established, we decided to fully characterize MN551 as a covalent SOCS2 inhibitor. […] (Fig. 2g, h, Supplementary Fig. 9). Due to the covalent nature of the competing inhibitor, a time-dependent reduction in the fraction of protein-bound probe is observed. […] This value illustrates reasonable specificity for a covalent inhibitor, with nonetheless scope for future optimization. In addition to characterizing the kinetic covalency parameters, we have also assessed the stability of the MN551 by monitoring its reactivity (half-life >70 min) with reduced glutathione (GSH) (Supplementary Fig. 10)[35].
To monitor the SBC2-ligand binding kinetics we designed a fluorescein-labeled small-molecule probe - compound 26. The fluorescence polarization (anisotropy) of a threefold serial dilution of 50 µM SBC2 in 10 nM of the probe in 100 mM HEPES pH 7.5, 50 mM NaCl, 0.5 mM TCEP, 2% DMSO was measured to determine the KL (Supplementary Fig. 9A) (BMG Labtech PHERAstar – firmware v1.33). Protein titration and the curves were fitted using GraphPad Prism 9, using one-site fitting models to determine the probe binding constant, KL. Samples were run in triplicate in 384 well plates, using a total volume per well of 16 μL. The bound fraction of the probe is measure using the equation:1 Fb=Af−A/Af−Ab Where,
A time-dependent reduction in probe anisotropy were measured for a 2-fold serial dilution of […] compound MN551 in 10 nM probe +300 μM SBC2. To determine the initial reversible binding affinity, the initial bound fraction of the probe at time = 0, Fbo (the y-intercept in Fb v/s Time plot, Supplementary Fig. 9B) was plotted against MN551 concentration, and the obtained IC50 is then converted to Ki (Supplementary Fig. 9C)[17]. The slope from Fb versus time graph when divided by Fbo gives rate of covalency, kobs. A plot of kobs v/s MN551 concentration using Michaelis–Menten model of GraphPad Prism 9, provides the parameters kinact (maximum potential rate of inactivation) and KI (concentration of MN551 at which kobs = kinact/2) (Supplementary Fig. 9D, E).
The observed first-order rate constant, kobs is related to KI and kinact by the equation:2 kobs=kinactI/KI+I
At [I]«[KI] the above equation is converted to3 […]
The slope from the plot of kobs against concentration of MN551 gives us the covalent efficiency parameter kinact/KI (Supp Fig. 9F)[30],[33].

[1] = MN551 24.4141 nM; Cycle 6 (25 min)
[2] = MN551 24.4141 nM; Cycle 7 (30 min)
[3] = MN551 24.4141 nM; Cycle 8 (35 min)
[4] = MN551 24.4141 nM; Cycle 9 (40 min)
[5] = MN551 24.4141 nM; Cycle 10 (45 min)
[6] = MN551 24.4141 nM; Cycle 12 (55 min); n=1
[7] = MN551 24.4141 nM; Cycle 13 (60 min); n=1
[8] = MN551 24.4141 nM; Cycle 14 (65 min); n=1
[9] = MN551 24.4141 nM; Cycle 15 (70 min); n=1
[10] = MN551 24.4141 nM; Cycle 16 (75 min); n=1
[11] = MN551 24.694 nM, Cycle 8 (35 min)
[12] = MN551 24.694 nM, Cycle 9 (40 min)
[13] = MN551 24.694 nM, Cycle 10 (45 min)
[14] = MN551 24.694 nM, Cycle 11 (50 min)
[15] = MN551 24.694 nM, Cycle 15 (70 min), n=1
[16] = MN551 24.694 nM, Cycle 16 (75 min), n=1
[17] = MN551 24.694 nM, Cycle 17 (80 min), n=1
[18] = MN551 24.694 nM; Cycle 6 (25 min)
[19] = MN551 24.694 nM; Cycle 7 (30 min)
[20] = MN551 24.694 nM; Cycle 8 (35 min)
[21] = MN551 24.694 nM; Cycle 9 (40 min)
[22] = MN551 24.694 nM; Cycle 10 (45 min)
[23] = MN551 24.694 nM; Cycle 12 (55 min); n=1
[24] = MN551 24.694 nM; Cycle 13 (60 min); n=1
[25] = MN551 24.694 nM; Cycle 14 (65 min); n=1
[26] = MN551 24.694 nM; Cycle 15 (70 min); n=1
[27] = MN551 24.694 nM; Cycle 16 (75 min); n=1

O=C(CCl)Nc1cccc(CNC(=O)[C@H](Cc2ccc(OP(=O)(O)O)cc2)NC(=O)Cc2ccc(F)cc2)c1 [MN551]
Anisotropy (MN551 24.4141 nM, Cycle 16 (75 min), n=1): 277.4 and 279.9 and 276.2 | Anisotropy (MN551 24.4141 nM, Cycle 17 (80 min), n=1): 277.4 and 280.3 and 275.1 | Fb, fraction bound (MN551 24.4141 nM; Cycle 3 (10 min)): 1.0193 and 1.044 and 1.0218 | Fb, fraction bound (MN551 24.4141 nM; Cycle 4 (15 min)): 1.024 and 1.018 and 1.009 | Fb, fraction bound (MN551 24.4141 nM; Cycle 5 (20 min)): 1.0167 and 1.074 and 1.0156 | Anisotropy data 485,520,520 [1]: 276.5 and 277 and 278.2 | Fb [1]: 0.9674 and 0.9519 and 0.96 | Fb, fraction bound [1]: 1.011 and 1.053 and 1.016 | Anisotropy data 485,520,520 [2]: 277.4 and 276.1 and 277.7 | Fb [2]: 1.0218 and 0.9651 and 1.004 | Fb, fraction bound [2]: 1.043 (2×) and 1.041 | Anisotropy [3]: 284.3 and 285.2 and 282.4 | Anisotropy data 485,520,520 [3]: 275.6 and 275.1 and 278.3 | Fb [3]: 0.9854 and 0.947 and 1.002 and 1.046 and 1.043 and 1.026 | Anisotropy [4]: 282.9 and 283.6 and 283.2 | Anisotropy data 485,520,520 [4]: 274.3 and 276.2 and 275 | Fb [4]: 0.997 and 0.9699 and 0.9765 and 1.019 and 1.044 and 1.045 | Anisotropy [5]: 281.8 and 282.7 and 281.7 | Anisotropy data 485,520,520 [5]: 269.3 and 272.6 and 275.3 | Fb [5]: 0.9636 and 0.9483 and 0.9913 and 1.019 and 1.05 and 1.033 | Anisotropy (MN551 24.4141 nM; Cycle 11 (50 min); n=1): 272.7 and 273.6 and 274.3 | Anisotropy (MN551 24.4141 nM; Cycle 12 (55 min)): 280.5 and 278.5 | Anisotropy [6]: 272.9 and 273.9 and 271.7 | Anisotropy based on Raw Data (485) [6]: 277.3 and 274.5 | Anisotropy [7]: 270.1 and 275.4 and 274.1 | Anisotropy based on Raw Data (485) [7]: 277.8 and 278.4 and 276.1 | Anisotropy [8]: 273.7 and 273.1 and 272.6 | Anisotropy based on Raw Data (485) [8]: 277.5 and 278.3 and 275 | Anisotropy [9]: 270.4 and 271.1 and 269.6 | Anisotropy based on Raw Data (485) [9]: 276 and 277.2 and 274.7 | Anisotropy [10]: 266.7 and 270.7 and 269.7 | Anisotropy based on Raw Data (485) [10]: 276.3 and 278.1 and 273.3 | Anisotropy data 485,520,520 (MN551 24.4141 nM; Cycle 19 (90 min); n=1): 275.5 and 278.4 and 275.6 | Anisotropy data 485,520,520 (MN551 24.4141 nM; Cycle 20 (95 min); n=1): 273.7 and 275.4 and 275.5 | Fb (MN551 24.694 nM, Cycle 7 (30 min)): 0.935 and 0.9067 and 0.9648 | Anisotropy based on Raw Data (485) [11]: 275.4 and 273.6 and 278.5 | Fb [11]: 0.924 and 0.9077 and 0.9353 | Anisotropy based on Raw Data (485) [12]: 272.7 and 272.3 and 277 | Fb [12]: 0.9065 and 0.9195 and 0.9578 | Anisotropy based on Raw Data (485) [13]: 272.9 and 272.7 and 276.9 | Fb [13]: 0.9231 and 0.9311 and 0.9417 | Anisotropy based on Raw Data (485) [14]: 273.7 and 271 and 274.6 | Fb [14]: 0.9157 and 0.8942 and 0.9419 | Anisotropy (MN551 24.694 nM, Cycle 13 (60 min), n=1): 280.3 and 275.9 and 276 | Anisotropy (MN551 24.694 nM, Cycle 14 (65 min), n=1): 277 and 276 and 275.3 | Anisotropy [15]: 277.6 and 276.3 and 273.5 | Normalised anisotropy (0 nM MN551 = 1, free probe = 0) [15]: 1.048 and 1.016 and 1.001 | Anisotropy [16]: 277.1 and 273 and 275.2 | Normalised anisotropy (0 nM MN551 = 1, free probe = 0) [16]: 1.015 and 1.001 and 1.016 | Anisotropy [17]: 277.8 and 275.8 and 273.3 | Normalised anisotropy (0 nM MN551 = 1, free probe = 0) [17]: 1.048 and 1.02 and 1.027 | Fb, fraction bound (MN551 24.694 nM; Cycle 3 (10 min)): 1.041 and 1.042 and 1.045 | Fb, fraction bound (MN551 24.694 nM; Cycle 4 (15 min)): 1.0566 and 1.028 and 1.059 | Fb, fraction bound (MN551 24.694 nM; Cycle 5 (20 min)): 1.038 and 1.036 and 1.067 | Anisotropy data 485,520,520 [18]: 273.6 and 273.1 | Fb [18]: 0.9876 and 0.9666 and 1.09 | Fb, fraction bound [18]: 1.046 (2×) and 1.032 | Anisotropy data 485,520,520 [19]: 276 and 267.3 and 272.9 | Fb [19]: 0.9659 and 0.9746 and 1.087 | Fb, fraction bound [19]: 1.025 and 1.014 and 1.031 | Anisotropy [20]: 281.7 and 282.2 | Anisotropy data 485,520,520 [20]: 275.6 and 267.5 and 271.6 | Fb [20]: 0.9665 and 0.9912 and 1.126 and 1.049 and 1.0226 and 1.064 | Anisotropy [21]: 280.6 and 280 and 279.4 | Anisotropy data 485,520,520 [21]: 273.5 and 267.3 and 272.4 | Fb [21]: 0.9516 and 0.998 and 1.103 and 1.047 and 1.002 and 1.032 | Anisotropy [22]: 282.7 and 279.9 and 278.3 | Anisotropy data 485,520,520 [22]: 271.7 and 265.8 and 269.2 | Fb [22]: 0.9778 and 0.997 and 1.132 and 1.058 and 1.011 and 1.0207 | Anisotropy (MN551 24.694 nM; Cycle 11 (50 min); n=1): 270.8 and 264.1 and 268.1 | Anisotropy [23]: 272.3 and 264.5 and 268.4 | Anisotropy based on Raw Data (485) [23]: 274 and 268.1 and 274.6 | Anisotropy [24]: 269 and 266.5 and 266.9 | Anisotropy based on Raw Data (485) [24]: 270.5 and 266.2 and 270.8 | Anisotropy [25]: 268.9 and 262.9 and 267.2 | Anisotropy based on Raw Data (485) [25]: 272.4 and 266.4 and 271.6 | Anisotropy [26]: 268.1 and 260.7 and 266.2 | Anisotropy based on Raw Data (485) [26]: 269.8 and 269 and 273.3 | Anisotropy [27]: 267.2 and 260.6 and 266.3 | Anisotropy based on Raw Data (485) [27]: 269.6 and 266.3 and 271.3
